doi:10.1101/2020.05.13.094391
Results are given in words; binding and its absence hold for the method and conditions named. In cells and extracts the contact can be indirect. Some binding calls cover weakened binding; strength is not graded here.

Chains of the proteins cited; added tags and fusions are not shown.
UniProt Q12888: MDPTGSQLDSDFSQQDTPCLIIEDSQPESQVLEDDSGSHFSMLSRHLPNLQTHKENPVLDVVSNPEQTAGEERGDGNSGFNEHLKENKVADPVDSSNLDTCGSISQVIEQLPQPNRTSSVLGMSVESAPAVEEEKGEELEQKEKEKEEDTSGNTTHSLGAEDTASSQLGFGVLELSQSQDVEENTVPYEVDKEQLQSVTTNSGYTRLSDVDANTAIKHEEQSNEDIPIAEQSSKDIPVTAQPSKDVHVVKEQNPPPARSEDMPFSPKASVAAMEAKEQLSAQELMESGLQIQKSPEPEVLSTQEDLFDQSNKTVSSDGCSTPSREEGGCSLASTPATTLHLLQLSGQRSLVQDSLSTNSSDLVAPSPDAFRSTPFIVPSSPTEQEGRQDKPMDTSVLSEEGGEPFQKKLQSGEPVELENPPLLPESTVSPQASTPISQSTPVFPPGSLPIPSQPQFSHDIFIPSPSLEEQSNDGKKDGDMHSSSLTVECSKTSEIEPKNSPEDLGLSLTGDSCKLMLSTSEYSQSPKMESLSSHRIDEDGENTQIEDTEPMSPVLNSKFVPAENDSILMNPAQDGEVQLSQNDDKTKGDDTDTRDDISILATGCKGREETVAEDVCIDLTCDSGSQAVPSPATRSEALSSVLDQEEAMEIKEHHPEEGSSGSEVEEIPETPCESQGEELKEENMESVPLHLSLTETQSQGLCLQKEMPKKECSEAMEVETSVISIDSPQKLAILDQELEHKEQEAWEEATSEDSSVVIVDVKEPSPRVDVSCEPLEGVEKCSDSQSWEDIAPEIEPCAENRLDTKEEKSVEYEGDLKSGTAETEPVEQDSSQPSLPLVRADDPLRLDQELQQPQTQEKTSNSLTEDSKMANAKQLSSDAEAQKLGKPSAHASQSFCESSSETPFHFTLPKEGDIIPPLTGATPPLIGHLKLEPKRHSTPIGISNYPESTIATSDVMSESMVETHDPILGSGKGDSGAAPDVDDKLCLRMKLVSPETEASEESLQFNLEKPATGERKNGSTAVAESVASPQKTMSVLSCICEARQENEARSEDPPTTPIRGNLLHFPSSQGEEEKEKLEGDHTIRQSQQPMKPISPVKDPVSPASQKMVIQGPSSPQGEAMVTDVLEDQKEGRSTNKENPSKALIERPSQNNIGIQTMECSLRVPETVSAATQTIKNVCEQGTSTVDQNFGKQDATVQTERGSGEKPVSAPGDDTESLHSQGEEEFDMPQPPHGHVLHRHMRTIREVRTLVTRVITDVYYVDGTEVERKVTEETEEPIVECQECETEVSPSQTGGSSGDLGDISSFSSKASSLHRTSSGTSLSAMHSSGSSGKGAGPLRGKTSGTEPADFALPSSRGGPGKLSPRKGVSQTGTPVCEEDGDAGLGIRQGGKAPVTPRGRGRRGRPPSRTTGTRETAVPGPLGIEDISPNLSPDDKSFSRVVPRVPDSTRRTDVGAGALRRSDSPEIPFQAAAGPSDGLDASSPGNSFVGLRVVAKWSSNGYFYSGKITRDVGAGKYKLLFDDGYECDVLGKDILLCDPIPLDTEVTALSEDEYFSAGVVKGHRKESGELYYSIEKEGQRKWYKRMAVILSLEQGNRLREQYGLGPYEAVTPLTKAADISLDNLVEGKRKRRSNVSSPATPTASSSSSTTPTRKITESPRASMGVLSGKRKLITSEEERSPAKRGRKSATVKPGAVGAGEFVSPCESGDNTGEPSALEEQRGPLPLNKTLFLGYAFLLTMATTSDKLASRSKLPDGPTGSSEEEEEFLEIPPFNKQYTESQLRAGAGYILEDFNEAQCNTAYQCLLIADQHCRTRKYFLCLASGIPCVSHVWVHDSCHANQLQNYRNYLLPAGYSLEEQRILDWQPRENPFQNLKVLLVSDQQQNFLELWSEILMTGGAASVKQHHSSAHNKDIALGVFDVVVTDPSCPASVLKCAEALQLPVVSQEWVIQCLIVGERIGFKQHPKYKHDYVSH
UniProt Q92769: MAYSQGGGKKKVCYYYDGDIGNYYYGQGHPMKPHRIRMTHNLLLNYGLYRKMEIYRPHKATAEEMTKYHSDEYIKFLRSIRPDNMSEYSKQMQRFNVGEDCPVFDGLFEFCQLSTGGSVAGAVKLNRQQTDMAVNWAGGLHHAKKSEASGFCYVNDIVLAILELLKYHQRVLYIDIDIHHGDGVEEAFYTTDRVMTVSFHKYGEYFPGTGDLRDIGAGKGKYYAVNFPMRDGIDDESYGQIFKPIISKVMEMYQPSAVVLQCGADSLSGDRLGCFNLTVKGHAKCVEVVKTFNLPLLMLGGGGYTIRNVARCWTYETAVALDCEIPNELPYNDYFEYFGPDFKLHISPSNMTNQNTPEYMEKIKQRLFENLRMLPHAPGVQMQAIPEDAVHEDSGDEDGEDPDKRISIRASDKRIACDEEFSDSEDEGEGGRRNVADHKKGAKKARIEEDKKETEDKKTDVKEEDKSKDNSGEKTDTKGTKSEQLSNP
UniProt Q13547: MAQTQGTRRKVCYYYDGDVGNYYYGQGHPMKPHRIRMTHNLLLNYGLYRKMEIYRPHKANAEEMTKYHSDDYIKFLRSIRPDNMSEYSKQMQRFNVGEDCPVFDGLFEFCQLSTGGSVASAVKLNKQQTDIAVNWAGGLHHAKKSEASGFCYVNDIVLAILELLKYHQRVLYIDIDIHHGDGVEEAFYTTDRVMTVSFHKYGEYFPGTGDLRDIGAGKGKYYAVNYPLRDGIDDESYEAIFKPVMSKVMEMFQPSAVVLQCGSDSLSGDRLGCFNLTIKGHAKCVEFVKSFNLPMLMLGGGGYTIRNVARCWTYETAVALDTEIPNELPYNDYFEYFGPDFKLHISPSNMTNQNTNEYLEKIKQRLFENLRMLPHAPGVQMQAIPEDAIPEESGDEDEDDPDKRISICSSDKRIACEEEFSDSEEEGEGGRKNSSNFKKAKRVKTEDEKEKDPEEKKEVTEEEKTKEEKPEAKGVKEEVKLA

Key:
[1] = target: T1, ZEB1, endogenous (human (endogenous in U2OS)) (UniProt P37275); test: co-IP
T1 sequence: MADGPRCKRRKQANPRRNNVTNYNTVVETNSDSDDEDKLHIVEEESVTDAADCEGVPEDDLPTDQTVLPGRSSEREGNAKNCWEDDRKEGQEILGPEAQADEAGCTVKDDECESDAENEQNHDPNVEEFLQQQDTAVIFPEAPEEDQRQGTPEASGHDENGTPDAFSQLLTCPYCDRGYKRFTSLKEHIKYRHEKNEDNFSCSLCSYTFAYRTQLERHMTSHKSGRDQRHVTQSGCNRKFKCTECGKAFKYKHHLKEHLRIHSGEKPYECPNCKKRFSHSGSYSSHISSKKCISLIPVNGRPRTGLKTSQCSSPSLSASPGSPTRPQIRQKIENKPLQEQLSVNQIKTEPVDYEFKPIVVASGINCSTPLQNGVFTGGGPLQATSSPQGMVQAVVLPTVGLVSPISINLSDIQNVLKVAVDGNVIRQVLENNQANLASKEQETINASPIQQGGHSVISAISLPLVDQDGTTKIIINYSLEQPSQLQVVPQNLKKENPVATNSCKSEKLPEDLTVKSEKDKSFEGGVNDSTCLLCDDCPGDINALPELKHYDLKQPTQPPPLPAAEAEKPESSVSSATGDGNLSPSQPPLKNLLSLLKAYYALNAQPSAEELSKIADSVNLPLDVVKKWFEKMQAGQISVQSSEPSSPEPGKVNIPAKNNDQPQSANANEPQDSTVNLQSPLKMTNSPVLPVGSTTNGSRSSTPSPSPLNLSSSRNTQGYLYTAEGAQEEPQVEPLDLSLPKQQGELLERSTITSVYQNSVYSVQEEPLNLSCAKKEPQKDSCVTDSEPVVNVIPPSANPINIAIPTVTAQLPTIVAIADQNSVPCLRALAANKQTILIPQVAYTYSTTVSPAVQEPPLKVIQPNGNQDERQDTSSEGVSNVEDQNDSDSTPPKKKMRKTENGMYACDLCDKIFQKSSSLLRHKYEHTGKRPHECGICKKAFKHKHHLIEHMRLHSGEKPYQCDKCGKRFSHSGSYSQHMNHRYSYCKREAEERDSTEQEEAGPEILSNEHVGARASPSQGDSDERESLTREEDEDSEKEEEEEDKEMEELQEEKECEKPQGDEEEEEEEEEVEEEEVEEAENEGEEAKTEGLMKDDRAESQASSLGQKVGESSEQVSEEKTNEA

[2] = target: 53BP1, endogenous (human (endogenous in U2OS)) (UniProt Q12888); test: co-IP

Row | binding [1] | binding [2] | Substance
1 | binds | – | 53BP1, endogenous (from UniProt Q12888 1-1972)
2 | binds | – | histone deacetylase 2, endogenous (from UniProt Q92769 1-488)
3 | binds | binds | histone deacetylase 1, endogenous (from UniProt Q13547 1-482)
